Measured values: patent publication US20220340666A1
Residue numbers refer to the chain shown, from its start. Results are given in words; binding and its absence hold for the method and conditions named. Binding calls can cover weak binding; strength is not graded here. One block for each binder: values may come before it.

What was measured:
[1] = biological target: mouse Galectin-9 CRD2 (residues 226-353), biotinylated (mouse); test: SPR (FIG. 6), purified Fab
[2] = biological target: mouse Galectin-9 CRD2 (residues 226-353), biotinylated (mouse); test: phage ELISA, phage-displayed Fab
[3] = biological target: mouse Galectin-9 CRD2 (residues 226-353), biotinylated (mouse); test: SPR, Fab over CRD2 on Avicap chip (OneStep)

binding [1]: binds | binding [2]: binds
B1: G9.2-15 Fab (Fab, V domains shown)
VH: EVQLVESGGGLVQPGGSLRLSCAASGFTVSSSSIHWVRQAPGKGLEWVASIYSSSGYTSYADSVKGRFTISADTSKNTAYLQMNSLRAEDTAVYYCARNVENYPYWAWPWGYYGAIDYWGQGTLVTVSS
VL: DIQMTQSPSSLSASVGDRVTITCRASQSVSSAVAWYQQKPGKAPKLLIYSASSLYSGVPSRFSGSRSGTDFTLTISSLQPEDFATYYCQQSSWGLITFGQGTKVEIKR

binding [3]: binds
B2: G9.2-17mut6 Fab (Fab, V domains shown)
VH: EVQLVESGGGLVQPGGSLRLSCAASGFTVSSSSIHWVRQAPGKGLEWVAYISSSSGYTYYADSVKGRFTISADTSKNTAYLQMNSLRAEDTAVYYCARYWSYPSWSPYRGMDYWGQGTLVTVSS
VL: B1 VL with W93T, G94D, L95P
